Values from PubChem BioAssay AID1259254 (NCATS, 2017)
In all, the deposit lists about 59,000 reagents; this is a random part of them. Over the whole deposit, about 1,550 (2.6%) are marked active. 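G2 share is only a proxy for re-replication; each gene was hit by three separate siRNAs, and active genes were retested.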 A number with no mark means an inactive call. Reagents against one gene are numbered here. Not all columns of the deposit are shown. No sequences are given here. Not given: the amount of reagent.

Screen: 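Genome-wide screen for genes that prevent DNA re-replication in cancer cells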 (primary screen)
Cells: human HCT116 colorectal cancer cells
Reagent: single siRNA against human genes
Time to read-out: 3 days
Detection: 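Nuclei stained with Hoechst and imaged; cell-cycle phase assigned by DNA content; G2 share scaled per plate, non-targeting siRNA 0%, GMNN siRNA 100%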
Direction: G2 robust z-score and G2 cells, % of GMNN control: higher = more G2 cells, more excess DNA replication
Active means: 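Active siRNAs have a G2 robust z of 5 or more median absolute deviations over the median, which in these data means about 38% or higher of GMNN control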

The opening 2 records, ahead of the listing:
{"gene knocked down": "PLEKHM1P1 (GeneID 440456)", "reagent no.": 1, "G2 robust z-score": -1.02, "G2 cells, % of GMNN control": -4.2}
{"gene knocked down": "PLEKHM1P1 (GeneID 440456)", "reagent no.": 2, "G2 robust z-score": -0.639, "G2 cells, % of GMNN control": -1.53}

Results, from the first entry:
{"gene knocked down": "PLEKHM1P1 (GeneID 440456)", "reagent no.": 1, "G2 robust z-score": -1.02, "G2 cells, % of GMNN control": -4.2}
{"gene knocked down": "PLEKHM1P1 (GeneID 440456)", "reagent no.": 2, "G2 robust z-score": -0.639, "G2 cells, % of GMNN control": -1.53}
{"gene knocked down": "PLEKHM1P1 (GeneID 440456)", "reagent no.": 3, "G2 robust z-score": -0.351, "G2 cells, % of GMNN control": 0.499}
{"gene knocked down": "TM4SF5 (GeneID 9032)", "reagent no.": 1, "G2 robust z-score": -0.0661, "G2 cells, % of GMNN control": 2.5}
{"gene knocked down": "TM4SF5 (GeneID 9032)", "reagent no.": 2, "G2 robust z-score": 0.159, "G2 cells, % of GMNN control": 4.09}
{"gene knocked down": "TM4SF5 (GeneID 9032)", "reagent no.": 3, "G2 robust z-score": 0.0409, "G2 cells, % of GMNN control": 3.26}
{"gene knocked down": "PCDHA13 (GeneID 56136)", "reagent no.": 1, "G2 robust z-score": -0.925, "G2 cells, % of GMNN control": -3.54}
{"gene knocked down": "PCDHA13 (GeneID 56136)", "reagent no.": 2, "G2 robust z-score": -0.681, "G2 cells, % of GMNN control": -1.83}
{"gene knocked down": "PCDHA13 (GeneID 56136)", "reagent no.": 3, "G2 robust z-score": 3.38, "G2 cells, % of GMNN control": 26.7}
{"gene knocked down": "VSIG4 (GeneID 11326)", "reagent no.": 1, "G2 robust z-score": 0.043, "G2 cells, % of GMNN control": 3.27}
{"gene knocked down": "VSIG4 (GeneID 11326)", "reagent no.": 2, "G2 robust z-score": 0.889, "G2 cells, % of GMNN control": 9.22}
{"gene knocked down": "VSIG4 (GeneID 11326)", "reagent no.": 3, "G2 robust z-score": 3.13, "G2 cells, % of GMNN control": 25}
